{"source": "paper doi:10.1101/2024.07.11.603088", "key": {"[1]": {"target": "Flag-tagged mutant YTHDF2 W486A (UniProt Q9Y5A9)", "assay": "proximity ligation"}, "[2]": {"target": "Flag-tagged mutant YTHDF2 W432A (UniProt Q9Y5A9)", "assay": "proximity ligation"}}, "note": "These are yes or no findings as the source states them, for the method shown. Binding seen in cells or lysates may run through a third protein.", "data": [{"substance": "Aiolos (IKZF3) (human, endogenous) (from UniProt Q9UKT9 1-509)", "values": [{"measurement": "binding", "setting": "[1]", "result": "no binding"}, {"measurement": "binding", "setting": "[2]", "result": "no binding"}]}]}
